These results are taken from patent publication US20240368668A1, “SUBSTRATES AND BIOMARKERS OF ADAMTS7” (The Broad Institute, Inc., priority 2021, published 2024).

The subject of the first data set is mouse ADAMTS7. As to the kind of experiment: TMT10 TAILS N-terminomics, SMC2 experiment (process replicates, trypsin/AspN digest). The data set is classed as cell-based. As to conditions: SMC rd2 TAILS, AspGluN search; total spectral intensity of the N-terminal peptide (TAILS_id = gene_StartAA cleavage site). The source says: (§1) ADAMTS7 Expression, Cell Culture and Preparation of the Secreted Proteins—Full-length mouse Adamts7 1-1857 (Uniprot Q68SA9, WT or E373Q catalytic mutant) with a carboxyl terminal 3xFLAG tag was used to generate custom adenoviruses as previously described. Adeno-CMV-Luciferase (Ad-Luc) from Vector Biolabs was used as a negative control. Human Coronary Artery Smooth Muscle Cells (HCA-SMC) were obtained from Lonza and expanded in Lonza SmGM-2 media in 15 cm tissue culture plates. Twenty-four hours before media collection, near confluent plates were transduced with 50 MOI adenovirus and switched to Lonza Basal SM media with volumes of 20 ml per 15 cm plate. Expression of the Flag tagged ADAMTS7 was confirmed from the media using western blot and detected using the anti-Flag M2-HRP antibody (Sigma, A8592). Collected media was processed by adding protease inhibitors (1 mM EDTA and 1 mM PMSF) and clarified by 500 g×5 min spin at 4 C to pellet cell debris. Cell media supernatants were then passed through a 0.22 um filter and kept chilled. Processed media was then concentrated 50-100× using 3 kDa Centricon Plus-70 filter unit, spun at 3,500 g×60 min at 4 C. Approximately 10% of the processed, concentrated media was set aside for total secretome proteolytic analysis. The remaining 90% of the processed, concentrated media was buffer exchanged into 50 mM HEPES pH 8.0, 150 mM NaCl (2×50 ml) using the 3 kDa Centricon Plus-70 filter unit and concentrated to >2 mg/ml to serve as input for the TAILS experiment. Secretome and TAILS input samples were stored at −80° C.
(§2) For the first experiment, referred to as SMC1, 120 ml of media from 6×15 cm dishes was pooled from each condition (Luc, WT, EQ) and processed to produce three separate inputs for the TAILS experiment. Luc, WT and EQ inputs from the SMC1 experiment were each divided into triplicate 400 ug samples to generate technical replicate TAILS data. For the second experiment, referred to as SMC2, media was processed separately in triplicate for each condition (Luc1, Luc2, Luc3, WT1, WT2, WT3, EQ1, EQ2, EQ3) using 60 ml of media from 3×15 cm dishes for each process replicate. Inputs from the SMC2 experiment used process replicates of 300 ug each to generate TAILS data. The third experiment used input from cultured Human umbilical vein endothelial cells (HUVEC) from Lifeline Cell Technology grown in VascuLife Media and transduced in Lifeline Basal EC (+bFGF2 10 ng/ml). The HUVEC experiment used the same strategy as the SMC2 experiment, with 40 ml of media from 2×15 cm dishes for each process replicate and used 200 ug each to generate TAILS data. Inputs for process replicate experiments were restricted to the lowest concentration from the 9 parallel samples for SMC2 or HUVEC.
(§3) TMT10 isotopic labeling and negative selection of non-labeled peptides-Sample preparation was performed based on the TAILS protocol from the Overall lab with some modifications. From a single experiment, nine parallel protein samples in 50 mM HEPES pH 8.0, 150 mM NaCl were separately denatured with guanidinium chloride (Sigma, G4505) to reach a final concentration of 2.5M guanidinium chloride and 250 mM HEPES and incubated at 65° C. for 15 min. Reduction was achieved through addition of tris(2-carboxylethyl) phosphine (TCEP) at a final concentration of […] and incubated at 65° C. for 45 min. Alkylation reaction was performed with addition of iodoacetamide (IAA, Sigma, A3221) to a final concentration of 10 mM IAA for 15 min at room temperature in the dark. Following denaturation, reduction and alkylation steps, ten percent of each of the nine parallel protein samples was removed and combined to serve as a pooled reference. Isobaric tags were added to free amine groups using the TMT10plex Isobaric Mass Tagging Kit (ThermoFisher, 90113) with TMT channels randomly assigned to the nine samples and TMT 131 assigned to the pooled reference. […]
The substance “FOXG1_235 (LNKCFVKVPRHY; listed as Homo sapiens)” gave an ATS7_SMC_rd2_TAILS_frxns_matS7inDB_AspGluN_retry.totalIntensity of 3.64E+07.

The substance “HEG1_51 (GLELQLER; listed as Homo sapiens)” displayed an ATS7_SMC_rd2_TAILS_frxns_matS7inDB_AspGluN_retry.totalIntensity of 2.73E+08.

In turn, “HEG1_224 (FQTKSGTAS; listed as Homo sapiens)” displayed an ATS7_SMC_rd2_TAILS_frxns_matS7inDB_AspGluN_retry.totalIntensity of 2.12E+08.

“KCND1_436 (RLAKSGTTNAFLQYKQNGGLE; listed as Homo sapiens)” yielded an ATS7_SMC_rd2_TAILS_frxns_matS7inDB_AspGluN_retry.totalIntensity of 3.21E+08.

The same data set, now with this note: total intensity of the N-terminal peptide spectra, SMC rd2 TAILS fractions, AspN/GluC search.
Substance “ACTG1_105 (LTEAPLNPKANR; listed as Homo sapiens)” returned an ATS7_SMC_rd2_TAILS_frxns_matS7inDB_AspGluN_retry.totalIntensity of 1.52E+08.

As for “ACTN4_5 (HAANQSYQYGPSSAGNGAGGGGSMG; listed as Homo sapiens)”, the ATS7_SMC_rd2_TAILS_frxns_matS7inDB_AspGluN_retry.totalIntensity is given as 2.33E+08.

Turning to “ADAM9_74 (GKEHIIHLER; listed as Homo sapiens)”, the ATS7_SMC_rd2_TAILS_frxns_matS7inDB_AspGluN_retry.totalIntensity worked out at 3.07E+08.

“ADAM10_86 (FKVETSNKVL; listed as Homo sapiens)” gave an ATS7_SMC_rd2_TAILS_frxns_matS7inDB_AspGluN_retry.totalIntensity of 1.44E+07.

On to “ADNP2_375 (SQPVGPVNK; listed as Homo sapiens)”, for which the ATS7_SMC_rd2_TAILS_frxns_matS7inDB_AspGluN_retry.totalIntensity was found to be 4.60E+09.

In turn, “AMER2_654 (LAGTTIRATACH; listed as Homo sapiens)” registered an ATS7_SMC_rd2_TAILS_frxns_matS7inDB_AspGluN_retry.totalIntensity of 2.57E+08.

Take “APLP2_452 (LVETHLAR; listed as Homo sapiens)”: the ATS7_SMC_rd2_TAILS_frxns_matS7inDB_AspGluN_retry.totalIntensity is 6.72E+08.

“APOA1_86 (EQLGPVTQEFW; listed as Homo sapiens)” displayed an ATS7_SMC_rd2_TAILS_frxns_matS7inDB_AspGluN_retry.totalIntensity of 1.76E+09.

As to “BMPER_43 (LTGSVAKCENEG; listed as Homo sapiens)”, the ATS7_SMC_rd2_TAILS_frxns_matS7inDB_AspGluN_retry.totalIntensity came to 1.92E+09.

“CALU_176 (FTAFLHPEEY; listed as Homo sapiens)” showed an ATS7_SMC_rd2_TAILS_frxns_matS7inDB_AspGluN_retry.totalIntensity of 1.25E+09.

Consider “CAP1_300 (FSAPKPQTSPSPKR; listed as Homo sapiens)”, for which the ATS7_SMC_rd2_TAILS_frxns_matS7inDB_AspGluN_retry.totalIntensity is reported as 4.47E+08.

In turn, “CCL2_28 (INAPVTCCYNFTNR; listed as Homo sapiens)” registered an ATS7_SMC_rd2_TAILS_frxns_matS7inDB_AspGluN_retry.totalIntensity of 3.12E+08.

In the case of “CEP192_728 (DKSTAGR; listed as Homo sapiens)”, the ATS7_SMC_rd2_TAILS_frxns_matS7inDB_AspGluN_retry.totalIntensity was 1.43E+09.

In turn, “CTSB 109 (WAFGAVEAIS; listed as Homo sapiens)” came in with an ATS7_SMC_rd2_TAILS_frxns_matS7inDB_AspGluN_retry.totalIntensity of 1.80E+07.

Consider “DBN1_434 (APVEPATA; listed as Homo sapiens)”, for which the ATS7_SMC_rd2_TAILS_frxns_matS7inDB_AspGluN_retry.totalIntensity came to 3.49E+08.

The substance “DIS3L_75 (FPELKGIIFMQTACQAVQHQR; listed as Homo sapiens)” displayed an ATS7_SMC_rd2_TAILS_frxns_matS7inDB_AspGluN_retry.totalIntensity of 2.26E+08.

Substance “ECM1_38 (FQEVGYAAPPSPPLSR; listed as Homo sapiens)” gave an ATS7_SMC_rd2_TAILS_frxns_matS7inDB_AspGluN_retry.totalIntensity of 1.82E+09.

As to “ECM1_44 (AAPPSPPLSR; listed as Homo sapiens)”, the ATS7_SMC_rd2_TAILS_frxns_matS7inDB_AspGluN_retry.totalIntensity is 1.31E+09.

For the substance “EEF1G 23 (QYSGAQVR; listed as Homo sapiens)”, the ATS7_SMC_rd2_TAILS_frxns_matS7inDB_AspGluN_retry.totalIntensity was found to be 1.67E+08.

On to “EIF4B_426 (QTGTSTTSSR; listed as Homo sapiens)”, for which the ATS7_SMC_rd2_TAILS_frxns_matS7inDB_AspGluN_retry.totalIntensity came to 9.39E+08.

In turn, “EMSY_943 (QTVVQVLAVK; listed as Homo sapiens)” returned an ATS7_SMC_rd2_TAILS_frxns_matS7inDB_AspGluN_retry.totalIntensity of 7.48E+08.

“FBLN2_665 (FSQVASNTIPLPLPQPNTCK; listed as Homo sapiens)” registered an ATS7_SMC_rd2_TAILS_frxns_matS7inDB_AspGluN_retry.totalIntensity of 7.99E+07.

As to “FLNA_689 (VNKPAEFTV; listed as Homo sapiens)”, the ATS7_SMC_rd2_TAILS_frxns_matS7inDB_AspGluN_retry.totalIntensity is on record as 3.19E+09.

The substance “FLNC_2649 (FVGQKNSFTV; listed as Homo sapiens)” had an ATS7_SMC_rd2_TAILS_frxns_matS7inDB_AspGluN_retry.totalIntensity of 7.42E+07.

Regarding “FN1_99 (DKYTGNTYR; listed as Homo sapiens)”, the ATS7_SMC_rd2_TAILS_frxns_matS7inDB_AspGluN_retry.totalIntensity was 2.24E+10.

In turn, “FN1_1693 (LQPTVEYVVSVYAQNPSG; listed as Homo sapiens)” had an ATS7_SMC_rd2_TAILS_frxns_matS7inDB_AspGluN_retry.totalIntensity of 1.01E+10.

The next data set deals with mouse ADAMTS7. As to the kind of experiment: TMT10 TAILS N-terminomics, SMC1 experiment (Ad-mADAMTS7 WT vs EQ vs Luc, technical replicates, trypsin digest). As to conditions: intensity of the N-terminal (TAILS) peptide in SMC scale-up TAILS experiment, fractions; peptide identified by TAILS_id (gene symbol_StartAA). The data set is classed as cell-based.
Source text: as §1, §2, §3
Substance “SERPINH127 (AAAPGTAEKLSPKAATLAER; listed as Homo sapiens)” gave a TAILS_SMC_Scaleup_fxns_mATS7i of 1.82E+08.

As for “SMOC1_35 (LISDRDPQCNLHCSR; listed as Homo sapiens)”, the TAILS_SMC_Scaleup_fxns_mATS7i turned out to be 9.50E+07.

In the case of “SPOCK1_126 (HWVGPSNLVK; listed as Homo sapiens)”, the TAILS_SMC_Scaleup_fxns_mATS7i was determined as 8.43E+07.

The substance “SRGN_50 (LEEKGPMFELLPGESNKIPR; listed as Homo sapiens)” had a TAILS_SMC_Scaleup_fxns_mATS7i of 1.42E+09.

For “SRGN_51 (EEKGPMFELLPGESNKIPR; listed as Homo sapiens)”, the TAILS_SMC_Scaleup_fxns_mATS7i is reported as 3.45E+07.

In turn, “SRGN_60 (LPGESNKIPR; listed as Homo sapiens)” registered a TAILS_SMC_Scaleup_fxns_mATS7i of 2.92E+07.

For the substance “SRGN_62 (GESNKIPR; listed as Homo sapiens)”, the TAILS_SMC_Scaleup_fxns_mATS7i stood at 3.99E+08.

“STC1_37 (QNSAEVVR; listed as Homo sapiens)”: the TAILS_SMC_Scaleup_fxns_mATS7i is recorded as 1.51E+08.

Substance “STC2_239 (HGEAGHHLPEPSSR; listed as Homo sapiens)” returned a TAILS_SMC_Scaleup_fxns_mATS7i of 9.79E+07.

For “STC2_244 (HHLPEPSSR; listed as Homo sapiens)”, the TAILS_SMC_Scaleup_fxns_mATS7i worked out at 1.06E+09.

“TGFBI_24 (GPAKSPYQLVLQHSR; listed as Homo sapiens)”: the TAILS_SMC_Scaleup_fxns_mATS7i came to 6.17E+10.

Substance “TGFBI_43 (QHGPNVCAVQKVIGTNR; listed as Homo sapiens)” registered a TAILS_SMC_Scaleup_fxns_mATS7i of 3.19E+10.

“TGFBI_50 (AVQKVIGTNR; listed as Homo sapiens)” displayed a TAILS_SMC_Scaleup_fxns_mATS7i of 5.27E+08.

“TGFBI_208 (GIVTVNCAR; listed as Homo sapiens)” showed a TAILS_SMC_Scaleup_fxns_mATS7i of 2.03E+08.

“TGFBI_276 (TLLAPTNEAFEKIPSETLNR; listed as Homo sapiens)” registered a TAILS_SMC_Scaleup_fxns_mATS7i of 2.25E+08.

Consider “TGFBI_497 (VLTPPMGTVMDVLKGDNR; listed as Homo sapiens)”, for which the TAILS_SMC_Scaleup_fxns_mATS7i was 3.45E+08.

As for “TGFBI_524 (SAGLTETLNR; listed as Homo sapiens)”, the TAILS_SMC_Scaleup_fxns_mATS7i is given as 7.48E+07.

As to “TGFBI_534 (EGVYTVFAPTNEAFR; listed as Homo sapiens)”, the TAILS_SMC_Scaleup_fxns_mATS7i was 6.29E+09.

Turning to “TG_1017 (GASALLR; listed as Homo sapiens)”, the TAILS_SMC_Scaleup_fxns_mATS7i came out at 1.85E+08.

“THBS1_972 (QNDPNWVVR; listed as Homo sapiens)” registered a TAILS_SMC_Scaleup_fxns_mATS7i of 3.65E+08.

Consider “TLN1_1501 (HTSALCNSCR; listed as Homo sapiens)”, for which the TAILS_SMC_Scaleup_fxns_mATS7i is 6.47E+06.

With “TMEM132A52 (LLDAPEHFR; listed as Homo sapiens)”, the TAILS_SMC_Scaleup_fxns_mATS7i was 1.07E+07.

In turn, “VASN_138 (HIQPGAFDTLDR; listed as Homo sapiens)” yielded a TAILS_SMC_Scaleup_fxns_mATS7i of 4.88E+07.

For “VASP_229 (AIAGAKLR; listed as Homo sapiens)”, the TAILS_SMC_Scaleup_fxns_mATS7i is reported as 3.14E+07.

As to “VIM_433 (LVDTHSKR; listed as Homo sapiens)”, the TAILS_SMC_Scaleup_fxns_mATS7i is 1.81E+08.
